# Measured values taken from patent EP4592317A1.
# B1: 137-39 VHH-hFc recombinant antibody (Fc fusion, not shown: a dimerising Fc or GST)
# chain: QVQLVESGGGLVHVGESLTLSCVISGGSSNLYGIGWYRQAPGQERKLVAVLHNEHTTKYLDSVKGRFFVSGDNAKNTLYLHMNNVKVEDTAVYYCNSASGTLAGTGYFASVGPWGQGTLVTVSS
# B2: 137-1 VHH-hFc recombinant antibody (Fc fusion, not shown: a dimerising Fc or GST)
# chain: QVQLVESGGGLVQPGGSLRLSCVASGFVFSTVTMGWGRQVPGKEFEWVSGVSSEGITDYADSVKGRFTISRDNAKNTVYLEMNSLKSEDTAEYYCLIGGRWSFGTWGQGTQVTVSS
# B3: 137-7 VHH-hFc recombinant antibody (Fc fusion, not shown: a dimerising Fc or GST)
# chain: QVQLVESGGGLVQPGGSLRLSCAASGFTLDSYAIAWFRQAPGKEREGVSCITSSGGSTNYADSVKGRFTISRDGAKNTVYLQLNSLKPEDTAIYYCAAFHRATCVILGEYDYWGQGTQVTVSS
# B4: 137-18 VHH-hFc recombinant antibody (Fc fusion, not shown: a dimerising Fc or GST)
# chain: QVQLVESGGGLVHPGGSLRLSCAASGFIFSLYTMSWVRQAPGKGLEWVSDINSGGDSTDYADSVKGRFTISRDNAKSTLYLQMNSLKPEDTAVYYCAKDYPLGQREDYWGQGTQVTVSS
# B5: 137-36 VHH-hFc recombinant antibody (Fc fusion, not shown: a dimerising Fc or GST)
# chain: QVQLVESGGGLVQTGGSLTLSCVASGRRFEAYTIGWLRQAPGDLREGVGCIFGGTTFTGYDDSVKGRFTISRDTAKNTVYLRMNNLTSEDTATYYCAAEGRPGQIKGQHGCLTPSWYNYKGQGTQVTVSS
# B6: 137-12 VHH-hFc recombinant antibody (Fc fusion, not shown: a dimerising Fc or GST)
# chain: QVQLVESGGGLVHPGGSLRLSCAASGFTLDDSAIGWFRQAPGKEREGVSCRSRSGYMTKYADSVKGRFTISRYNANNTMYLQMNSLKPEDTAVYYCATTRRGYCSGYETKGVDYWGQGIQVTVSS
# B7: 137-16 VHH-hFc recombinant antibody (Fc fusion, not shown: a dimerising Fc or GST)
# chain: EVQLVESGGGLVQAGASLTLSCVISGRTFSSYAMGWYRQAPGKERAFVGTITWNNDIIYSDSVKGRFTISTDDGKNTMYLQMNNLKPEDTAVYYCAAYSVPYGDFCTLNYDLMDYWGKGTLVTVSS
# Molecular target: Monkey 4-1BB extracellular region recombinant protein (his-tag) (monkey)
# Assay: ELISA, coated antigen
row,binding,Binder
1,binds,B1
2,binds,B2
3,binds,B3
4,binds,B4
5,binds,B5
6,binds,B6
7,binds,B7

# These are yes or no findings as the source states them, for the method shown. Binding can be weak; no strength is given.
